# From the supplement of paper PMC8975748
# Counter-ions that a name gives are not always drawn. ± gives the standard deviation of the averaged measurements. This is one part of the list. These are raw signals, not scaled to a control.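 A single yeast strain with four plasmids, each encoding a fluorescent protein and an amino-acid or uracil biosynthesis gene, seeds the community. Stochastic plasmid loss yields mixed prototroph and auxotroph subpopulations. Fixed cells were counted via automated confocal fluorescence imaging; DMSO-treated wells were the vehicle reference.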 Bridge positions count the residues as written; N and C are the ends. Square brackets hold non-standard residues; d marks the D form. Peptide text beside a SMILES is read from it. * marks the point of attachment. Ileψ(thiazoline)Cys = CC[C@H](C)[C@H](N)C1=N[C@H](C(=O)*)CS1; dOrn = NCCC[C@@H](N)C(=O)O
# Tested on: Saccharomyces cerevisiae BY4741 SeMeCo community
# Experiment: imaged cell count per well (cells); higher = more cells
# Settings: 10 µM; 24 h; SM minimal medium
# Description: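 Same SeMeCo high-content imaging drug screen: Selleck FDA-approved drugs at 10 µM, 24 h in SM medium, 384-well plates, 3 replicates.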
row,SMILES,imaged cell count per well
1,N=C(N)NC(=O)c1nc(Cl)c(N)nc1N [Amiloride HCl],17400 ± 8200
2,O=C(O)c1cc(/N=N/c2ccc(O)c(C(=O)O)c2)ccc1O [Olsalazine Sodium],26400 ± 3800
3,O=C1c2c(O)ccc(O)c2C(=O)c2c(NCCNCCO)ccc(NCCNCCO)c21 [Mitoxantrone 2HCl],24500 ± 1500
4,NC(CO)(CO)CO [Trometamol],28300 ± 7600
5,Nc1c(CC(=O)O)cccc1C(=O)c1ccc(Br)cc1 [Bromfenac Sodium],19100 ± 10000
6,CNCCCC1c2ccccc2C=Cc2ccccc21 [Protriptyline hydrochloride],22900 ± 4500
7,C[C@@H](O)[C@H]1C(=O)N2C(C(=O)O)=C(S[C@@H]3CN[C@H](CNS(N)(=O)=O)C3)[C@H](C)[C@H]12 [Doripenem Hydrate],26500 ± 1100
8,CCOc1cc(N)c(Cl)cc1C(=O)NCC1CN(Cc2ccc(F)cc2)CCO1 (stereo not drawn) [Mosapride Citrate],17100 ± 7100
9,CC1=Nc2ccc(Cl)cc2S(=O)(=O)N1 [Diazoxide],30400 ± 1800
10,C[C@@H](O)[C@H]1C(=O)N2C(C(=O)[O-])=C(SC3Cn4cnc[n+]4C3)[C@H](C)[C@H]12 (stereo partly drawn) [Biapenem],28000 ± 2700
11,CCCCCOc1ccccc1/C(=C\SC)n1ccnc1 [Neticonazole Hydrochloride],3970 ± 1400
12,CN(C)CCCN1c2ccccc2Sc2ccc(Cl)cc21 [Chlorpromazine HCl],23200 ± 2500
13,NC[C@H]1O[C@H](O[C@H]2[C@H](O[C@@H]3O[C@H](CO)[C@@H](O)[C@H]3O)[C@@H](O)[C@H](N)C[C@@H]2N)[C@H](N)[C@@H](O)[C@@H]1O [Ribostamycin Sulfate],18200 ± 3100
14,Cc1cc(-n2c(=O)[nH]c(=O)n(C)c2=O)ccc1Oc1ccc(SC(F)(F)F)cc1 [Toltrazuril],22900 ± 4600
15,"CC[C@H](Nc1ncnc2[nH]cnc12)c1nc2cccc(F)c2c(=O)n1-c1ccccc1 [Idelalisib (CAL-101, GS-1101)]",18600 ± 7700
16,O=C1CCc2ccc(OCCCCN3CCN(c4cccc(Cl)c4Cl)CC3)cc2N1 [Aripiprazole],22300 ± 1900
17,COc1ccc2c(c1)C(=O)N(CCc1ccc(S(=O)(=O)NC(=O)NC3CCCCC3)cc1)C(=O)C2(C)C [Gliquidone],24400 ± 8300
18,C[C@@H](O)[C@H]1C(=O)N2C(C(=O)OCOC(=O)C(C)(C)C)=C(SC3CN(C4=NCCS4)C3)[C@H](C)[C@H]12 [Tebipenem Pivoxil],24700 ± 6200
19,O=C(c1ccc(OCCN2CCCCC2)cc1)c1c(-c2ccc(O)cc2)sc2cc(O)ccc12 [Raloxifene],25300 ± 8100

row,SMILES,imaged cell count per well
1,CC(C(O)c1ccc(O)cc1)N1CCC(Cc2ccccc2)CC1 (stereo not drawn) [Ifenprodil Tartrate],27500 ± 5800
2,Cc1[nH]c(=O)c(C#N)cc1-c1ccncc1 [Milrinone],24400 ± 4200
3,C=CC[N+]1([C@H]2C[C@H]3[C@@H]4CC[C@H]5C[C@H](O)[C@@H](N6CCOCC6)C[C@]5(C)[C@H]4CC[C@]3(C)[C@H]2OC(C)=O)CCCC1 [Rocuronium Bromide],24400 ± 5200
4,C[C@@H](O)[C@H]1C(=O)N2C(C(=O)O)=C([C@H]3CCCO3)S[C@H]12 [Faropenem Sodium],19800 ± 9100
5,CO[C@@]1(NC(=O)C(C(=O)O)c2ccc(O)cc2)C(=O)N2C(C(=O)O)=C(CSc3nnnn3C)CO[C@@H]21 (stereo partly drawn) [Latamoxef sodium],17300 ± 8900
6,C/C=C\c1ccc(O)c(OC)c1 [Isoeugenol],27800 ± 5600
7,CC(=O)OCC(CCn1cnc2cnc(N)nc21)COC(C)=O [Famciclovir],13600 ± 1800
8,CO[C@@H]1[C@H](OC(=O)/C=C/C=C/C=C/C=C/C(=O)O)CC[C@]2(CO2)[C@H]1[C@@]1(C)O[C@@H]1CC=C(C)C [Fumagillin],24500 ± 2000
9,C=CCc1ccc(O)c(-c2ccc(O)c(CC=C)c2)c1 [Honokiol],19100 ± 2100
10,CCc1nc(N)nc(N)c1-c1ccc(Cl)cc1 [Pyrimethamine],26500 ± 6400
11,CC[C@H](C)[C@H](N)C1=N[C@H](C(=O)N[C@@H](CC(C)C)C(=O)N[C@H](CCC(=O)O)C(=O)N[C@H](C(=O)N[C@H]2CCCCNC(=O)[C@H](CC(N)=O)NC(=O)[C@@H](CC(=O)O)NC(=O)[C@H](Cc3cnc[nH]3)NC(=O)[C@@H](Cc3ccccc3)NC(=O)[C@H]([C@@H](C)CC)NC(=O)[C@@H](CCCN)NC2=O)[C@@H](C)CC)CS1 [Bacitracin] ({Ileψ(thiazoline)Cys}-L[dE]IK[dOrn]I[dF]H[dD]N; lactam 4-C),23600 ± 11000
12,COCCCN1CCC(NC(=O)c2cc(Cl)c(N)c3c2OCC3)CC1 [Prucalopride Succinate],17600 ± 13000
13,C(=C\c1ccccc1)/CN1CCN(C(c2ccccc2)c2ccccc2)CC1 [Cinnarizine],26000 ± 3300
14,O=C1CN(/N=C/c2ccc(-c3ccc([N+](=O)[O-])cc3)o2)C(=O)N1 [Dantrolene sodium],23700 ± 1900
15,O=C(O)c1cccnc1Nc1cccc(C(F)(F)F)c1 [Niflumic acid],16800 ± 4800
16,O=C(Nc1c(Cl)cncc1Cl)c1ccc(OC(F)F)c(OCC2CC2)c1 [Roflumilast],24300 ± 4700
17,COc1ccccc1OCC(O)CN1CCN(CC(=O)Nc2c(C)cccc2C)CC1 (stereo not drawn) [Ranolazine 2HCl],26400 ± 5300
18,NC(=O)N1c2ccccc2C=Cc2ccccc21 [Carbamazepine],22400 ± 1200
19,CCn1cc(C(=O)O)c(=O)c2cc(F)c(N3CCNCC3)nc21 [Enoxacin],25400 ± 4600

# Grouped by structure, those above with an aryl methoxy group (three)
row,SMILES,imaged cell count per well
17,COc1ccc2c(c1)C(=O)N(CCc1ccc(S(=O)(=O)NC(=O)NC3CCCCC3)cc1)C(=O)C2(C)C [Gliquidone],24400 ± 8300
6,C/C=C\c1ccc(O)c(OC)c1 [Isoeugenol],27800 ± 5600
17,COc1ccccc1OCC(O)CN1CCN(CC(=O)Nc2c(C)cccc2C)CC1 (stereo not drawn) [Ranolazine 2HCl],26400 ± 5300
